pIC50: −log10 of the molar value.
Biological target: Human factor D (Homo sapiens (Human), UniProt P00746)
Assay: Human Factor D Assay
Format: biochemical
Conditions: human factor D 80 nM, substrate Z-L-Lys-SBzl, DTNB, OD405
Protocol: Human factor D (purified from human serum, Complement Technology, Inc.) at 80 nM final concentration is incubated with test compound at various concentrations for 5 minutes at room temperature in 50 mM Tris, 1M NaCl, pH 7.5. A synthetic substrate Z-L-Lys-SBzl and DTNB (Ellman's reagent) are added to final concentrations of 10 μM each. The increase in color is recorded at OD405 nm in a microplate in kinetic mode over 30 minutes with 30 second time points in a […]. IC50 values are calculated by non-linear regression from the percentage of inhibition of complement factor D activity as a function of test compound concentration.

Amino acid sequences for entries named in this document (tags omitted). Residues count along the entry.
UniProt P00746, 26-253: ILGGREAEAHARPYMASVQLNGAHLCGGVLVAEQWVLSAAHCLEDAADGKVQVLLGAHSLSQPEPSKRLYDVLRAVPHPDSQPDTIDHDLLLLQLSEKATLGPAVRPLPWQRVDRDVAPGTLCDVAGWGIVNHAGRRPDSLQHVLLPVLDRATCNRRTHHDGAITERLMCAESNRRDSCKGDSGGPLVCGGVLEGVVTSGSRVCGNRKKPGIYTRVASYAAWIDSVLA

CC(=O)c1cn(CC(=O)N2C[C@H](F)C[C@H]2C(=O)NC2Cc3ccccc3C2)c2ccccc12 [Compound 43, (2S,4R)-1-(2-(3-acetyl-1H-indol-1-yl)acetyl)-N-(2,3-dihydro-1H-inden-2-yl)-4-fluoropyrrolidine-2-carboxamide] was tested, and the pIC50 was > 6.00.
